According to the supplement of paper PMC10849652:
This is one part of the list.

The chains behind the UniProt entries cited, without tags or fusion partners. Where a name states a change or a piece, a line headed by the entry shows the natural chain unless it says otherwise.
UniProt Q9UBP6: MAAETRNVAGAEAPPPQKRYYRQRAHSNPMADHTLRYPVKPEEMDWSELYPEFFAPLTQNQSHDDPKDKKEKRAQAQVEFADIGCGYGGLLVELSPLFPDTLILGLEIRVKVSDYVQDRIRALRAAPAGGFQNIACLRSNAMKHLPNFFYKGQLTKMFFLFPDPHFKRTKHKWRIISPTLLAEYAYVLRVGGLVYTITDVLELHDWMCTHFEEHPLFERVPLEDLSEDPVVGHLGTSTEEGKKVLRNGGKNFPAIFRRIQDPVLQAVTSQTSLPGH
UniProt Q8IVS2: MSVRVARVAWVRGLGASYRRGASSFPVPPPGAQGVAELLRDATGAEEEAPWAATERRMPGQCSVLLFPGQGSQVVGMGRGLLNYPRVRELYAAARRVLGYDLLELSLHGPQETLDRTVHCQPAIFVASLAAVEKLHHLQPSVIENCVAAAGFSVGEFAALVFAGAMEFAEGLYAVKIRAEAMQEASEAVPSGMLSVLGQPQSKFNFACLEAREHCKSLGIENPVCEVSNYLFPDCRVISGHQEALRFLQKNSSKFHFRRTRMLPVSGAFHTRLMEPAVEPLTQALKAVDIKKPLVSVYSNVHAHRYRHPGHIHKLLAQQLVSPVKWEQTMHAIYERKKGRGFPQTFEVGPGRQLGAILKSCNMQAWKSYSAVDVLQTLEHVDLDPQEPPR
UniProt Q9BUE0: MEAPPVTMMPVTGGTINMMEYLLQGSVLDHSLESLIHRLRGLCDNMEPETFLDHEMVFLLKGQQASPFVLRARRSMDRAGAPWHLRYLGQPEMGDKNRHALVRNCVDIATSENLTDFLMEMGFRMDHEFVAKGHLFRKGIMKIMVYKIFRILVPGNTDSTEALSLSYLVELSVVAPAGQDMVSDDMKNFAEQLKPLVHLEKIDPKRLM
UniProt Q96N66: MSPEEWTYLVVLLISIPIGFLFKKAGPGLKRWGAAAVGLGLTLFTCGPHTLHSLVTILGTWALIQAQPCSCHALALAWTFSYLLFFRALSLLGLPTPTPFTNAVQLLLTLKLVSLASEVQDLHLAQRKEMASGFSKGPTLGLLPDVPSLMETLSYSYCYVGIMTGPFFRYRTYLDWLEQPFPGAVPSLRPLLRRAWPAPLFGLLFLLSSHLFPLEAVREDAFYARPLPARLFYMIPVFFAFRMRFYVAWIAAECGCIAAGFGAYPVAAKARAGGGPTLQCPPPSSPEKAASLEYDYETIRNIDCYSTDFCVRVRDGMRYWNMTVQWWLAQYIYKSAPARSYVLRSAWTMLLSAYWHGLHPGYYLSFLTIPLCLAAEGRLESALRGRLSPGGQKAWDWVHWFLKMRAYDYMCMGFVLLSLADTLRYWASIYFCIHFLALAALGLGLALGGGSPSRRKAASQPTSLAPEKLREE
UniProt Q9NR56: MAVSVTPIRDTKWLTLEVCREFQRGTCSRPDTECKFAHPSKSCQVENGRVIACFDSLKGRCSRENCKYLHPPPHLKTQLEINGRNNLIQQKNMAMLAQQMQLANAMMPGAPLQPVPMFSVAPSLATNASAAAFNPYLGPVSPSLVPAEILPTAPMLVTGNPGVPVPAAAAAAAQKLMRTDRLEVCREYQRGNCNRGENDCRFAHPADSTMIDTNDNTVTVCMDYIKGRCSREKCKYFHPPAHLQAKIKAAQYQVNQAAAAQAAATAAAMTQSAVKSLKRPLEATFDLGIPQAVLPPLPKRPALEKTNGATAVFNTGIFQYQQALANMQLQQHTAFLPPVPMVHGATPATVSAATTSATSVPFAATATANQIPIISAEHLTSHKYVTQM
UniProt Q96PE7: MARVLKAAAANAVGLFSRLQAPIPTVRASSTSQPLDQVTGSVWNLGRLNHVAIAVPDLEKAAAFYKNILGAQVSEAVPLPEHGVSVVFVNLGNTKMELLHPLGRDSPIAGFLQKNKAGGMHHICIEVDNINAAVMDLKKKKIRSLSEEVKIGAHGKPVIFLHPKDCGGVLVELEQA
UniProt Q9H204: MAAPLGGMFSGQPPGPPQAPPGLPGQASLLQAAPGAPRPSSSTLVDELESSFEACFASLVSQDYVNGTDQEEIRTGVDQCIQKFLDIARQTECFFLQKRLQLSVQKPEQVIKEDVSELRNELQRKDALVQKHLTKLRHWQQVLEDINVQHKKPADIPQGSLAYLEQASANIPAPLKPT
UniProt Q14703: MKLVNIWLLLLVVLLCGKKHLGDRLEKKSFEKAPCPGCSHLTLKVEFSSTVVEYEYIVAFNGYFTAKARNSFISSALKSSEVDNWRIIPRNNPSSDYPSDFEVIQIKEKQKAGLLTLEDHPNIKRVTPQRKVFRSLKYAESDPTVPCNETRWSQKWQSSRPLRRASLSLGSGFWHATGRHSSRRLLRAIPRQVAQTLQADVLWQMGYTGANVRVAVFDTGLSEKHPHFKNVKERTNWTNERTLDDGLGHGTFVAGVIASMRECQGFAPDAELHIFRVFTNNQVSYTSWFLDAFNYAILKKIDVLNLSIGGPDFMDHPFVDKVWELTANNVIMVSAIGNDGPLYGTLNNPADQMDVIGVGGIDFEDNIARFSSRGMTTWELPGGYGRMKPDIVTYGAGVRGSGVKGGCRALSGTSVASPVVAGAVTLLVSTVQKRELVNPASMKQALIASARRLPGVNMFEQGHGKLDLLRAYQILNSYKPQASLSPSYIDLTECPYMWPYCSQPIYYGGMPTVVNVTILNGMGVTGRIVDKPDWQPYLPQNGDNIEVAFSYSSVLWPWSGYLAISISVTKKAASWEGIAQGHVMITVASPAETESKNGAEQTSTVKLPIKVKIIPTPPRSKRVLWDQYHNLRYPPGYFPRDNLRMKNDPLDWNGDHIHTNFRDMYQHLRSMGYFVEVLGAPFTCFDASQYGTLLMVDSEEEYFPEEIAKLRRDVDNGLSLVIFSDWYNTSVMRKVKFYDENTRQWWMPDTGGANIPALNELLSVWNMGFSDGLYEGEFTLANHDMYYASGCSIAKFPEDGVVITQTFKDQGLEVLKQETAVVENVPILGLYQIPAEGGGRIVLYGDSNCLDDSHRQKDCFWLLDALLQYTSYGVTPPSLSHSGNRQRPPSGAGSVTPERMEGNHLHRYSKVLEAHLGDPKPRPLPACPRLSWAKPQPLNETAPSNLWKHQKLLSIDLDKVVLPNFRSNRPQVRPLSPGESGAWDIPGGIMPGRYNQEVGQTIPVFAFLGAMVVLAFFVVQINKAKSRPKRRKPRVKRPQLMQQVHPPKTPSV
UniProt Q86W50: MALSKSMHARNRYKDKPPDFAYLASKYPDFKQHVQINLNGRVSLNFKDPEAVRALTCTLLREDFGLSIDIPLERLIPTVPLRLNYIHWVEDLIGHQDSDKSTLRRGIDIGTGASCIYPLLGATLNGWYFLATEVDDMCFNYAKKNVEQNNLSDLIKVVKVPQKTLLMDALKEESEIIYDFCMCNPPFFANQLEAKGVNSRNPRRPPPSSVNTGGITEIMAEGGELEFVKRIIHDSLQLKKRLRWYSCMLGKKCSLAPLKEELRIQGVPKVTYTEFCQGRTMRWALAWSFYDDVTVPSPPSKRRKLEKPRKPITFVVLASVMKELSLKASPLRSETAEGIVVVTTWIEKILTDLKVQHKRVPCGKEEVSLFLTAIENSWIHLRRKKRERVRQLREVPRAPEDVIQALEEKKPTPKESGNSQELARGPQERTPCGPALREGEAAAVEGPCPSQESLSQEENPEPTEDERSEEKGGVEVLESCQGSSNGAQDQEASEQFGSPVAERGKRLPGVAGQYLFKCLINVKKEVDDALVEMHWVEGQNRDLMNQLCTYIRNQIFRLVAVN
UniProt Q06413, whole entry, looked up: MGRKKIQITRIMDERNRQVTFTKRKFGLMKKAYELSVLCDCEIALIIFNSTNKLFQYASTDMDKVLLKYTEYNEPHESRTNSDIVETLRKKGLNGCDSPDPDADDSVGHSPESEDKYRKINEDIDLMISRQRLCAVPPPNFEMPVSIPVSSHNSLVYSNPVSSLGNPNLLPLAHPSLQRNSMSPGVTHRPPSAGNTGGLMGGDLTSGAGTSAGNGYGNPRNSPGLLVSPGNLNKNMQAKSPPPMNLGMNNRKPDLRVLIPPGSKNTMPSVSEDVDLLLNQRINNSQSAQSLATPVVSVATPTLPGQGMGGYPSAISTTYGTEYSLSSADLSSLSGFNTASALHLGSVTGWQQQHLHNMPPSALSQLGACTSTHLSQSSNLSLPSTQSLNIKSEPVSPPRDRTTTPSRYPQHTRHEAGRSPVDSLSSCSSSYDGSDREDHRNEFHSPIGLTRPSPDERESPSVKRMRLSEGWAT
UniProt O95983: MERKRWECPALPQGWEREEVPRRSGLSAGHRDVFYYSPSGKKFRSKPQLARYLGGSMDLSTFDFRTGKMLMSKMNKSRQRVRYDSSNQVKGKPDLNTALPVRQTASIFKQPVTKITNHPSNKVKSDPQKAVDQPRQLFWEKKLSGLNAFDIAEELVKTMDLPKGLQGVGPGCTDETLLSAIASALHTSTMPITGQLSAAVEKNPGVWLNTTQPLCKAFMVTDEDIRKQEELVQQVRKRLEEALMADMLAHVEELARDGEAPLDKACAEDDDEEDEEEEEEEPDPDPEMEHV
UniProt P33992: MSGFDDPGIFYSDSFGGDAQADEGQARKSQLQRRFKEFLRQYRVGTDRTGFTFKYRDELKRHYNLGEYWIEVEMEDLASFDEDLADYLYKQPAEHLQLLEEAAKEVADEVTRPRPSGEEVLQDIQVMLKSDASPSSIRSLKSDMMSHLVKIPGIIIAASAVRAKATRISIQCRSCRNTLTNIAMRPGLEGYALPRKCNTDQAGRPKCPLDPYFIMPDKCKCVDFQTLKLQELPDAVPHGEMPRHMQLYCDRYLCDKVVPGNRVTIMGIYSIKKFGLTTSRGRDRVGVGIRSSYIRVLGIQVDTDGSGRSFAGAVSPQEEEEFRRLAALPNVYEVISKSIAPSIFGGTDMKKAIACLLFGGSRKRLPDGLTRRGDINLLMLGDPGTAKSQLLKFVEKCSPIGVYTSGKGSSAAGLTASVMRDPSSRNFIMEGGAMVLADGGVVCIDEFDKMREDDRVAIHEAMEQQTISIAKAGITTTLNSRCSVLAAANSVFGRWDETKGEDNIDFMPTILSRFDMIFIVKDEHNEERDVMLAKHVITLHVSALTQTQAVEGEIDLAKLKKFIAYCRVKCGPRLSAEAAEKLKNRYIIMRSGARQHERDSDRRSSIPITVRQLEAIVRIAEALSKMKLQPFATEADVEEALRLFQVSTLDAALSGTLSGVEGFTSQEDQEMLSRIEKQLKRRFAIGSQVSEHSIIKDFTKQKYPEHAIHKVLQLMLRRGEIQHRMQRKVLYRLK
UniProt Q5TF39: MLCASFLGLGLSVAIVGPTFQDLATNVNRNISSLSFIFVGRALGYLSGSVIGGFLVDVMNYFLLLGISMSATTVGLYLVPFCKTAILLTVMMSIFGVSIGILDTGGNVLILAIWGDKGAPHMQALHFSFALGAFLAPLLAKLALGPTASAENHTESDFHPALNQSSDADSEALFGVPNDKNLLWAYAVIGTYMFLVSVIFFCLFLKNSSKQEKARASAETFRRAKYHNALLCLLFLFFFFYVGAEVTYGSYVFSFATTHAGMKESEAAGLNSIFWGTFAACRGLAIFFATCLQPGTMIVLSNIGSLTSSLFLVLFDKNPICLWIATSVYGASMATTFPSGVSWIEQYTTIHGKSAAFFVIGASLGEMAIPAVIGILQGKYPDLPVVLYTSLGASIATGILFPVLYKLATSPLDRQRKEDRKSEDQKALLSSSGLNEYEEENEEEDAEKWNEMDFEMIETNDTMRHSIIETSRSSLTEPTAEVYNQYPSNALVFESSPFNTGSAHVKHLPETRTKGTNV
UniProt P48163: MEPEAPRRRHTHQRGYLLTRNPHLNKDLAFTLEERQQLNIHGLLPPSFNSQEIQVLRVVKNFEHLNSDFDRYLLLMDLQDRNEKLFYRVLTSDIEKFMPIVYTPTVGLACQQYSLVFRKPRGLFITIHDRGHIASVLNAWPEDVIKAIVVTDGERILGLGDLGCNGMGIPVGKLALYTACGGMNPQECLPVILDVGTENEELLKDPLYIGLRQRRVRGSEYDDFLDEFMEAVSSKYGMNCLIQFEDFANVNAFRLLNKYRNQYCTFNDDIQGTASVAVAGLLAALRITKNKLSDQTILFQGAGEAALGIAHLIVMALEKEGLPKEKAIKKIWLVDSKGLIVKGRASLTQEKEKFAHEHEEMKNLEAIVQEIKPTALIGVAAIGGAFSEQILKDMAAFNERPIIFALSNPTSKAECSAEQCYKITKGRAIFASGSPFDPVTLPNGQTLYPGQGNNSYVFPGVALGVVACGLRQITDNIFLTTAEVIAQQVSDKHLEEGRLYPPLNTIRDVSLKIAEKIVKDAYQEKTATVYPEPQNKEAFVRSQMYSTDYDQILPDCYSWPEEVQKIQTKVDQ
UniProt Q9H944: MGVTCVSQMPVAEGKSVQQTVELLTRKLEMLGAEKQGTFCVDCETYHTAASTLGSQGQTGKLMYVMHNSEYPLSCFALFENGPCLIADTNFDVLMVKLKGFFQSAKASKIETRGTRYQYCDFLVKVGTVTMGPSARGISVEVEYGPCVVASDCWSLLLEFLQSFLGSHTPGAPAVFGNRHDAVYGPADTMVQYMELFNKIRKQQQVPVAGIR

compound: c1cn2cc(-c3ccc4cn[nH]c4c3)nc(Nc3ccc(N4CCOCC4)cc3)c2n1 [entospletinib]; test: log2 fold change, soluble protein after heating vs DMSO (PISA); higher = thermal stabilisation; K562 cells, 10 uM, 30 min; active = over 0.2 and 3.5 SD of the protein, either way, in both replicates (recomputed)
Procedure, shortened: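 Aliquots of K562 cells (2×10^6 cells/mL) treated with 10 μM compound for 30 min were heated for 3 min over 48°C-58°C. After pooling and extraction in PBS with 0.5% NP-40 at 4°C, soluble protein from a 21,000xg, 90 min spin was quantified by TMTpro 16plex LC-MS/MS with channel sums equalised. Thermal stability is expressed against control samples, from duplicates, as a log2 fold change.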

log2 fold change, inactive:
METTL5 (UniProt Q9NRN9) 0.003, METTL1 (UniProt Q9UBP6) 0.014, MCAT (UniProt Q8IVS2) -0.009, MED18 (UniProt Q9BUE0) 0.073, METTL3 (UniProt Q86U44) -0.011, METTL14 (UniProt Q9HCE5) 0.01, MECP2 isoform 2 (UniProt P51608) 0.038, MBOAT7 (UniProt Q96N66) -0.025, MBNL1 (UniProt Q9NR56) -0.059, MCEE (UniProt Q96PE7) 0.031, MED28 (UniProt Q9H204) 0.007, MBTPS1 (UniProt Q14703) -0.132, METAP1 (UniProt P53582) 0.01, MBNL1 isoform 5 (UniProt Q9NR56) 0, METAP2 (UniProt P50579) 0.009, MAT1A (UniProt Q00266) -0.016, MFSD10 (UniProt Q14728) 0.048, MED15 (UniProt Q96RN5) -0.045, MDP1 (UniProt Q86V88) 0.016, MED4 (UniProt Q9NPJ6) 0.037, METTL16 (UniProt Q86W50) -0.046, MEF2C isoform 2 (UniProt Q06413) -0.013, MBD3 (UniProt O95983) 0, MED9 (UniProt Q9NWA0) 0.055, MCM5 (UniProt P33992) -0.093, MEMO1 (UniProt Q9Y316) 0.026, MFSD4B (UniProt Q5TF39) -0.096, ME1 (UniProt P48163) -0.041, MED20 (UniProt Q9H944) -0.014
